Measured values: article doi:10.1101/2021.10.25.465771
These are yes or no findings as the source states them, for the method shown. In cells and extracts the contact can be indirect. Some results given as binding are weak or reduced against the parent protein; the word gives no strength.

By UniProt entry, the sequences of proteins in these tests, tags left out.
UniProt Q13562: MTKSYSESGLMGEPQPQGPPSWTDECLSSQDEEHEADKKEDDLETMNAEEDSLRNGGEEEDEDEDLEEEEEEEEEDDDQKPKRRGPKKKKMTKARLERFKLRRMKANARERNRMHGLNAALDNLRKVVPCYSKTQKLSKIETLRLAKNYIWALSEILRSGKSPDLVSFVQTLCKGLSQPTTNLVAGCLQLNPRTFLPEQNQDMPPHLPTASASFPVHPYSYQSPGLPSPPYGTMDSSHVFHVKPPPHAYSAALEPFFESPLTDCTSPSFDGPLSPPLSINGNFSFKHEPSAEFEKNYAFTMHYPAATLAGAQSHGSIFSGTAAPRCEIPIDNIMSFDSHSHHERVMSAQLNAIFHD
UniProt P25440: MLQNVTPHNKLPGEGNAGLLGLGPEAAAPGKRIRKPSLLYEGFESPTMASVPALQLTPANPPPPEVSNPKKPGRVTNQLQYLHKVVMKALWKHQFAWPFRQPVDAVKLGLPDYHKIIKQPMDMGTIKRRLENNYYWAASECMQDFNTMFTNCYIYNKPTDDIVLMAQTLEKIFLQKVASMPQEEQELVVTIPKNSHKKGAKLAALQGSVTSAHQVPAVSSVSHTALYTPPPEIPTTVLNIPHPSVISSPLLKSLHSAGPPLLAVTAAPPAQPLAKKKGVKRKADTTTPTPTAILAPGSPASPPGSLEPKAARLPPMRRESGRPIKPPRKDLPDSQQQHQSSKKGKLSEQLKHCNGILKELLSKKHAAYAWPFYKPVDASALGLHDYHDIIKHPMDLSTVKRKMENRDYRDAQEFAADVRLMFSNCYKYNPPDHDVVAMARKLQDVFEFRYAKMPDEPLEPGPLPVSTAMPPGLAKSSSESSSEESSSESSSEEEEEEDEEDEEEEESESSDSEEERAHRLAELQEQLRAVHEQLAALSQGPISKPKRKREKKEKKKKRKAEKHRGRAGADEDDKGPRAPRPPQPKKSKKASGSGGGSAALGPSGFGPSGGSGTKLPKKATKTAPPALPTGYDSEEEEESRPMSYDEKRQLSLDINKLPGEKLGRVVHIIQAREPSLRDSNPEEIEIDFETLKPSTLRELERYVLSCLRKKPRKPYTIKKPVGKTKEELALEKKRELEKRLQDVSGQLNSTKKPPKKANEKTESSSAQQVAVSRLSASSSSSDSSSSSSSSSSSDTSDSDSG

Target: NEUROD1 (human (endogenous in H446 and H524)) (UniProt Q13562)
Assay: co-IP

BRD2 (from UniProt P25440 1-801)
binding: binds
